Some of the results follow.
Compound: Cc1cc(ccc1-c1ccccc1)C(=O)N1CCCN(CC1)C(=O)CCl [compound 10]
Assay: probe-labelled cysteine peptide fold change vs DMSO (competition) (log2 fold change); higher = less target engagement (more negative = stronger competition)
Conditions: THP-1, incubation time: 4 h
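Note: competitive profiling in live THP-1 cells: cysteine peptides tagged with an iodoacetamide desthiobiotin (IA-DTB) probe, intensity after compound treatment relative to DMSO-treated cells.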

Chains of the proteins cited; added tags and fusions are not shown. Lines headed by an entry give the natural chain unless they say otherwise; changes in a name come on top.
UniProt Q8IWR0: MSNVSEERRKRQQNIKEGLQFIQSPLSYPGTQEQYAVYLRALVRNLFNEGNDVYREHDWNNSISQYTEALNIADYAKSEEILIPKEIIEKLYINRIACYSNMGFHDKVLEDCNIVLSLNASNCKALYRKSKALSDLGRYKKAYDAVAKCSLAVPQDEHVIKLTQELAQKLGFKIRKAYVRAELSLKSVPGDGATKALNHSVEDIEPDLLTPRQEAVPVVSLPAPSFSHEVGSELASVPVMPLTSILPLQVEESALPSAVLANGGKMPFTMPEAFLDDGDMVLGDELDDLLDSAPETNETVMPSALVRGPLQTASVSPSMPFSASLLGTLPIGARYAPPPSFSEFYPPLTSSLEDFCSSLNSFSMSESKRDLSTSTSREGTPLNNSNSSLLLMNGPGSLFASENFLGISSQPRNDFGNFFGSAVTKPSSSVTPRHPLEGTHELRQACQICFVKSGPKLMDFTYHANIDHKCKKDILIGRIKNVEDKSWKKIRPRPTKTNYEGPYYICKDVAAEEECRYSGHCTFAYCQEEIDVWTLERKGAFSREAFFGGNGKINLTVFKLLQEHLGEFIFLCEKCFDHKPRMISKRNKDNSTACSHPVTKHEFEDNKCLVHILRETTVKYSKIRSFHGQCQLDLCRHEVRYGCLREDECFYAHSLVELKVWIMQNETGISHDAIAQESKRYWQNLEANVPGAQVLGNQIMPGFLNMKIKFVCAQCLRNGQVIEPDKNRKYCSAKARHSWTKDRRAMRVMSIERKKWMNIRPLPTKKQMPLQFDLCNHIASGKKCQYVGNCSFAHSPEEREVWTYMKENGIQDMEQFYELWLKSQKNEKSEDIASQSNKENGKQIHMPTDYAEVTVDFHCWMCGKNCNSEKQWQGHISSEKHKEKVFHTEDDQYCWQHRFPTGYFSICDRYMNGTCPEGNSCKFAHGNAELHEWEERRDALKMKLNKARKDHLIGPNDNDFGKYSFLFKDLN
UniProt P54577: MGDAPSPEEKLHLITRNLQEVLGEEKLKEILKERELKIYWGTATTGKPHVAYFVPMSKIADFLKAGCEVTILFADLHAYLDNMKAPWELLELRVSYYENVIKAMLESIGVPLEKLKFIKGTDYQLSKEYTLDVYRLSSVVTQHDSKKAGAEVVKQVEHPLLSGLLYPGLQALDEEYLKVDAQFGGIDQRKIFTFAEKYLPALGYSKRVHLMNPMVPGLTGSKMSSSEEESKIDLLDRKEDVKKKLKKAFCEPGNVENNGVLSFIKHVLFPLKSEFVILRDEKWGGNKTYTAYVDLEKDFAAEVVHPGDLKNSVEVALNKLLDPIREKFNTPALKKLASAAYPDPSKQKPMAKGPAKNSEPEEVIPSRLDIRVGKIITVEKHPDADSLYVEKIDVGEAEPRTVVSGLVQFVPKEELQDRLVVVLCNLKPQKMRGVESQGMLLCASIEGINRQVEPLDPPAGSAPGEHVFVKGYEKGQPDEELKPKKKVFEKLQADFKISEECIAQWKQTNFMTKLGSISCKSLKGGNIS
UniProt Q7Z2W4: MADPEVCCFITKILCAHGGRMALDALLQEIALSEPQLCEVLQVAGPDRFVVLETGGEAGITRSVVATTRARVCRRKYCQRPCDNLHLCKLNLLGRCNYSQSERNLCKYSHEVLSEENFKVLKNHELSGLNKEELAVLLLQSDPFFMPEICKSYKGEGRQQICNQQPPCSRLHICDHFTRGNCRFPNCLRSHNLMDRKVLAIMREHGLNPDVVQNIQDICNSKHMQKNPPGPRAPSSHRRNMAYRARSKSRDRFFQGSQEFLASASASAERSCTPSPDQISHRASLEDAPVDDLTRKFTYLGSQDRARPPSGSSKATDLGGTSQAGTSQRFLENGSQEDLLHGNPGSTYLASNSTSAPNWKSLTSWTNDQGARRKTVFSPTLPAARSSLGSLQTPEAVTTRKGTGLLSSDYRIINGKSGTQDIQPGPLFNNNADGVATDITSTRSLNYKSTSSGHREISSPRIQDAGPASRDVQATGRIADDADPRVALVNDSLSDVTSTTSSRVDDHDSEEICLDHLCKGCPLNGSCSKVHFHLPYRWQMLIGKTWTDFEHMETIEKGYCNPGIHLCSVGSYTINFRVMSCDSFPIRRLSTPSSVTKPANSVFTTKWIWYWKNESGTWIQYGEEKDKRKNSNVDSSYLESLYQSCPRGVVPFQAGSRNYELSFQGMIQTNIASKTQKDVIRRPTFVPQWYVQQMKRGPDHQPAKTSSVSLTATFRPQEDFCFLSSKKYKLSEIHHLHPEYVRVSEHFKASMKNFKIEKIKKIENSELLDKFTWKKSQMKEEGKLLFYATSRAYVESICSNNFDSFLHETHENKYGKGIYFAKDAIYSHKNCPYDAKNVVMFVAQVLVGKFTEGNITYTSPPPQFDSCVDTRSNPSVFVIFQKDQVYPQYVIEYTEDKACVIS
UniProt Q96QU8: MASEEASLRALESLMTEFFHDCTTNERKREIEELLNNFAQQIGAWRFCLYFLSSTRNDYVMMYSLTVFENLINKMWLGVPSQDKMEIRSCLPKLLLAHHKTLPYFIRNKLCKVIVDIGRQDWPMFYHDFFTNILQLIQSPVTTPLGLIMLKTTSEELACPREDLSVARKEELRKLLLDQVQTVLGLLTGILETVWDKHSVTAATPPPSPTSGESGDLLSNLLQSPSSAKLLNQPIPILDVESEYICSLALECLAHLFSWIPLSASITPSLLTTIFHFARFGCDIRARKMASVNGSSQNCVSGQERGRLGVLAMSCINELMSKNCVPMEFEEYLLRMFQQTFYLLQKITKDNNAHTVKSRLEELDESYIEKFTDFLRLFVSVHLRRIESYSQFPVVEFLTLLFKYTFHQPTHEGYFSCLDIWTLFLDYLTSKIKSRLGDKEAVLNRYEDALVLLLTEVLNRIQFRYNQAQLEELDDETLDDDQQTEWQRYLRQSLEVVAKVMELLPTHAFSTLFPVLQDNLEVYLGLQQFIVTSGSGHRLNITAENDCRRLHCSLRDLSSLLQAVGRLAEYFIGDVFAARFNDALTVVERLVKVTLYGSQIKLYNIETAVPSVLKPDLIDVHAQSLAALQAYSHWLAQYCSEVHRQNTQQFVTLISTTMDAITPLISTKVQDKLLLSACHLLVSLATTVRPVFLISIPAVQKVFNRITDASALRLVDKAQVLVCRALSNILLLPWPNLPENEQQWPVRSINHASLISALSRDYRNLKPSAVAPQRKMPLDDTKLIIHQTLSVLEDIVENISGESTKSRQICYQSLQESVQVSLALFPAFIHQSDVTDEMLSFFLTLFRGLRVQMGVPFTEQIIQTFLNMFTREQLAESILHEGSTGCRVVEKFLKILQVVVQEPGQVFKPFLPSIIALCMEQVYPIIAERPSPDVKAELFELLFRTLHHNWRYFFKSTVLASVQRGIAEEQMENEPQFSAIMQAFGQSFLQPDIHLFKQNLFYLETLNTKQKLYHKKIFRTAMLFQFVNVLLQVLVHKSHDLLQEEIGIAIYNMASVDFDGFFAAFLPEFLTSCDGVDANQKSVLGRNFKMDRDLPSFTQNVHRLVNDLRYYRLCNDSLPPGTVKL
UniProt P27348: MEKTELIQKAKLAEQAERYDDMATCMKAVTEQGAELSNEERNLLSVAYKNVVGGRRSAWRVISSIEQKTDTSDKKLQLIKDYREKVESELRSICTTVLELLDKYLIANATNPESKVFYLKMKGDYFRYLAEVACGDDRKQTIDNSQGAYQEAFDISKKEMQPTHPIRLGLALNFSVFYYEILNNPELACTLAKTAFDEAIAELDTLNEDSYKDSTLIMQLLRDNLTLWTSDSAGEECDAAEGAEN
UniProt Q8IZH2: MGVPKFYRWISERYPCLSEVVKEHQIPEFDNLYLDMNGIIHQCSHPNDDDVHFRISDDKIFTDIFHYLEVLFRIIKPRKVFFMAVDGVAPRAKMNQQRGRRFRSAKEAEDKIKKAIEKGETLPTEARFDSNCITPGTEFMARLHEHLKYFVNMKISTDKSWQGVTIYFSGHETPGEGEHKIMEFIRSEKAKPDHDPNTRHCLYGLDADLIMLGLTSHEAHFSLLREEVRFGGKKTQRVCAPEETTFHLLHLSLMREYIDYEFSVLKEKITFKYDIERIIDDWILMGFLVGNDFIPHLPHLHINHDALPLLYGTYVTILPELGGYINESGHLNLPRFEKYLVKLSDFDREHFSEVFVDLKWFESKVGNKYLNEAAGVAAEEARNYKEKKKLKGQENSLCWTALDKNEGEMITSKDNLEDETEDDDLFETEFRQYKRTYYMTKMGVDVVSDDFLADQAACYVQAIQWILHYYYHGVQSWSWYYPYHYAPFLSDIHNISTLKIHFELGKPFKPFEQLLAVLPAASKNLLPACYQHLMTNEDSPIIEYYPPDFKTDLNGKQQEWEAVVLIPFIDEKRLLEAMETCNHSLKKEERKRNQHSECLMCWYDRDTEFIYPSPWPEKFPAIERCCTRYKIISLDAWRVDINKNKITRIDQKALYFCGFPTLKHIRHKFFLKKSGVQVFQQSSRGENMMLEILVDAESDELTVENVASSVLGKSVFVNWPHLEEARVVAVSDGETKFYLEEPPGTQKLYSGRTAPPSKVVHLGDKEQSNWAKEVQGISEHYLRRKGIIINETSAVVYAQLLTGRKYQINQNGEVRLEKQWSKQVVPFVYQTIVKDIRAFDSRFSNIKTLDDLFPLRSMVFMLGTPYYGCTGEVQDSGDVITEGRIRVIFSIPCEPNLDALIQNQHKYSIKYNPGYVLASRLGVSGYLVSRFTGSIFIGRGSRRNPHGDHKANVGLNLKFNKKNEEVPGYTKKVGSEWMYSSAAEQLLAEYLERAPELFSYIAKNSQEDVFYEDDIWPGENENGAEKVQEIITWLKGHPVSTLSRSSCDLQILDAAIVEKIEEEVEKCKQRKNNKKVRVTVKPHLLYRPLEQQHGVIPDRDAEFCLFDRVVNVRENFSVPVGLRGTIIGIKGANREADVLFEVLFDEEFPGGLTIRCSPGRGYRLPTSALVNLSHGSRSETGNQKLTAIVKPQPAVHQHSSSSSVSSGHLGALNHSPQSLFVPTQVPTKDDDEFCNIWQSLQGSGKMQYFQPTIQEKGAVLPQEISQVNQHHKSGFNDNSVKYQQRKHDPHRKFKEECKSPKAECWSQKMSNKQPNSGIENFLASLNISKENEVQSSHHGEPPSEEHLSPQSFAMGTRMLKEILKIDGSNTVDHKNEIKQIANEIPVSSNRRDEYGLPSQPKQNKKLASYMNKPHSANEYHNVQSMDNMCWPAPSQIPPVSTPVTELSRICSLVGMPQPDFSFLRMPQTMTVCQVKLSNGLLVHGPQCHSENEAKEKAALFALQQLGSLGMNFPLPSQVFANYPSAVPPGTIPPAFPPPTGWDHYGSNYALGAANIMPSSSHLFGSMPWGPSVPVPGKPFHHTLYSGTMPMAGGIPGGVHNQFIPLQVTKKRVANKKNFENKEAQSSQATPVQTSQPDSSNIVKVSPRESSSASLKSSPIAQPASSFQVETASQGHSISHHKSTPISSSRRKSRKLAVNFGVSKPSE
UniProt Q8TCF1: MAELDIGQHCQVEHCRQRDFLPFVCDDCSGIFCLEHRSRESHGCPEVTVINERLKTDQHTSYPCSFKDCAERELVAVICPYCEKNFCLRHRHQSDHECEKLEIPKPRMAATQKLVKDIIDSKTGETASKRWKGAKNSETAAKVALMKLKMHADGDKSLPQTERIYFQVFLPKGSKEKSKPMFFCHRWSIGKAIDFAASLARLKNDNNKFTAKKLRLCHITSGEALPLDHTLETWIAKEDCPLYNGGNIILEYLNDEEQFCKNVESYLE
UniProt O95365: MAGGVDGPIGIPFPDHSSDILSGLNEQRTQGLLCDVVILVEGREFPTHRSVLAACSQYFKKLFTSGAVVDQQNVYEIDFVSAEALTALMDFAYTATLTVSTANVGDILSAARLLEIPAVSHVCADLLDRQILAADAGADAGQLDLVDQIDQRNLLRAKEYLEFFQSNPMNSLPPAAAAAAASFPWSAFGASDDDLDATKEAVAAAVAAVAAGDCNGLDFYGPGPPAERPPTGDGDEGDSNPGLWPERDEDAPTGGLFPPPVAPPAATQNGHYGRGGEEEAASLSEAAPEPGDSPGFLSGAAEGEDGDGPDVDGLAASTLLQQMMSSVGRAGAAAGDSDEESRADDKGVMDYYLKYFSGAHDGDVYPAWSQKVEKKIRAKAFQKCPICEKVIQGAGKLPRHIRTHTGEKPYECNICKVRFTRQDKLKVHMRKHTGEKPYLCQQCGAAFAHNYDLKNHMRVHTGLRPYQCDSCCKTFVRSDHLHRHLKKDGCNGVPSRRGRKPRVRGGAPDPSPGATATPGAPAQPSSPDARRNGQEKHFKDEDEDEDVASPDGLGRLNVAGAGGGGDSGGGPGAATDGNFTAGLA
UniProt P63104: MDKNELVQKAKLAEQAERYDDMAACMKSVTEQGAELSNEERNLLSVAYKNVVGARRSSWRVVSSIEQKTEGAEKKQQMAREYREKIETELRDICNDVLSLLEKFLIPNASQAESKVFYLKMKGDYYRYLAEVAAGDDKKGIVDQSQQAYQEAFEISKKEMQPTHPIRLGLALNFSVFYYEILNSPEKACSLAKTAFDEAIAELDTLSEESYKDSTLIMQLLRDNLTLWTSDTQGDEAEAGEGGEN

Target	probe-labelled cysteine peptide fold change (10 µM)	probe-labelled cysteine peptide fold change (50 µM)
ZBED4_O75132_156_DLSTSCLMR (UniProt O75132)	-0.152	-0.341
XPO5_Q9HAV4_706_SCDPGLEDPCGLNR (UniProt Q9HAV4)	0.112	0.0391
XRN2_Q9H0D6_266_EEFKPNKPKPCGLCNQFGHEVK (UniProt Q9H0D6)	0.13	-0.465
ZC3H7A_Q8IWR0_98_IACYSNMGFHDK (UniProt Q8IWR0)	0.183	-0.18
XRN2_Q9H0D6_296_KGKHDELADSLPCAEGEFIFLR (UniProt Q9H0D6)	0.00821	-0.143
YARS_P54577_501_ISEECIAQWK (UniProt P54577)	-0.244	-0.109
XPO1_O14980_528_DLLGLCEQK (UniProt O14980)	-0.246	-0.874
ZCCHC8_Q6NZY4_607_KSEAGHASSPDSEVTSLCQK (UniProt Q6NZY4)	0.0879	-0.446
ZCCHC4_Q9H5U6_19_NGFEAVEAEGSAGCR (UniProt Q9H5U6)	-0.284	-0.772
ZC3HC1_Q86WB0_112_YGWVTVECDMLK (UniProt Q86WB0)	-0.111	-0.396
ZC3HAV1_Q7Z2W4_567_GYCNPGIHLCSVGSYTINFR (UniProt Q7Z2W4)	0.175	0.426
XPO6_Q96QU8_324_NCVPMEFEEYLLR (UniProt Q96QU8)	-0.0141	0.145
ZBTB14_O43829_52_CVLAACSTYFK (UniProt O43829)	-0.261	0.226
YY1AP1_Q9H869_689_AHMNVDIACAVADGENAFQGLEPK (UniProt Q9H869)	-0.0161	0.141
ZDHHC4_Q9NPG8_337_SNLQEIFLPAFPCHER (UniProt Q9NPG8)	0.0234	-0.318
YWHAQ_P27348_25_YDDMATCMK (UniProt P27348)	-0.185	-0.108
YY1AP1_Q9H869_734_QCQEGLSENSAYR (UniProt Q9H869)	-0.0153	0.349
ZFAND5_O76080_170_CGNLFCGLHR (UniProt O76080)	0.442	0.48
ZFAT_Q9P243_392_EALDELCLMTR (UniProt Q9P243)	0.0869	-0.0057
YBEY_P58557_121_ENEDYNDVLTVTATHGLCHLLGFTHGTEAEWQQMFQK (UniProt P58557)	0.239	-0.191
ZC3HAV1_Q7Z2W4_272_SCTPSPDQISHR (UniProt Q7Z2W4)	-0.00132	0.109
ZC3H7A_Q8IWR0_775_QMPLQFDLCNHIASGKK (UniProt Q8IWR0)	-0.229	-0.69

Target	probe-labelled cysteine peptide fold change (10 µM)	probe-labelled cysteine peptide fold change (50 µM)
XRN1_Q8IZH2_16_YPCLSEVVK (UniProt Q8IZH2)	0.0766	0.204
XRN1_Q8IZH2_598_NQHSECLMCWYDRDTEFIYPSPWPEK (UniProt Q8IZH2)	-0.137	0.296
YWHAG_P61981_112_NCSETQYESK (UniProt P61981)	0.0697	0.155
YIPF4_Q9BSR8_94_CVLMPMPSLGFNR (UniProt Q9BSR8)	0.0423	-0.000503
YARS_P54577_519_LGSISCK (UniProt P54577)	-0.249	-0.105
YBEY_P58557_41_FDLGIICVDNK (UniProt P58557)	-0.294	-0.279
XRN2_Q9H0D6_21_KYPSIIVNCVEEK (UniProt Q9H0D6)	-0.0843	0.603
XPO1_O14980_99_NQCEGIK (UniProt O14980)	-0.132	0.16
ZFAND1_Q8TCF1_44_ESHGCPEVTVINER (UniProt Q8TCF1)	-0.0255	-0.0191
YME1L1_Q96TA2_433_ANAPCVIFIDELDSVGGKR (UniProt Q96TA2)	0.0418	-0.109
ZC3HAV1_Q7Z2W4_867_FTEGNITYTSPPPQFDSCVDTR (UniProt Q7Z2W4)	-0.143	-0.069
ZBTB7A_O95365_490_DGCNGVPSR (UniProt O95365)	0.000157	-0.0775
ZFC3H1_O60293_1405_DNPEIWCHYLR (UniProt O60293)	-0.127	-0.124
XRN2_Q9H0D6_29_ECNGVK (UniProt Q9H0D6)	-0.154	-0.425
XPO5_Q9HAV4_1025_HEDVCTALLITAFNSLAWK (UniProt Q9HAV4)	0.149	0.00519
ZC3H11A_O75152_588_GDVASCNTQVAEKPVLTAVPGITR (UniProt O75152)	-0.2	-0.189
ZBED4_O75132_599_KPTNLGTSCLLR (UniProt O75132)	-0.105	-0.465
ZBTB7A_O95365_34_TQGLLCDVVILVEGR (UniProt O95365)	0.138	0.193
YWHAZ_P63104_25_LAEQAERYDDMAACMK (UniProt P63104)	-0.163	-0.821
ZC3H14_Q6PJT7_647+652_CTKPDCPFTHVSR (UniProt Q6PJT7)	0.172	-0.263
XPO7_Q9UIA9_525_VSFASTDEQDAMDGELVCR (UniProt Q9UIA9)	0.222	0.32

Reformatted with bars between the fields: entries from further up
Target | probe-labelled cysteine peptide fold change (10 µM) | probe-labelled cysteine peptide fold change (50 µM)
XPO6_Q96QU8_324_NCVPMEFEEYLLR (UniProt Q96QU8) | -0.0141 | 0.145
ZC3HAV1_Q7Z2W4_867_FTEGNITYTSPPPQFDSCVDTR (UniProt Q7Z2W4) | -0.143 | -0.069
